Patent publication US6646113
These are yes or no findings as the source states them, for the method shown. In cells and extracts the contact can be indirect. Some entries that bind do so weakly or less than the wild type. One block for each substance: values may come before it.

Chains of the proteins cited; added tags and fusions are not shown. Lines headed by an entry give the natural chain unless they say otherwise; changes in a name come on top.
UniProt Q16637: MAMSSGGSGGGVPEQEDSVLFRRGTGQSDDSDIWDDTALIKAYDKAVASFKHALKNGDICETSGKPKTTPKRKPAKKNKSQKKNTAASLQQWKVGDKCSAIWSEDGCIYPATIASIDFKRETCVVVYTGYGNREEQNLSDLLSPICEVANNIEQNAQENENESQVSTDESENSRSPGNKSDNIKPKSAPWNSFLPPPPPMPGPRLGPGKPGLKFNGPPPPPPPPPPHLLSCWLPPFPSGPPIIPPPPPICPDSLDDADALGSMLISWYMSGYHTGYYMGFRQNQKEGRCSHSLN
UniProt O14893: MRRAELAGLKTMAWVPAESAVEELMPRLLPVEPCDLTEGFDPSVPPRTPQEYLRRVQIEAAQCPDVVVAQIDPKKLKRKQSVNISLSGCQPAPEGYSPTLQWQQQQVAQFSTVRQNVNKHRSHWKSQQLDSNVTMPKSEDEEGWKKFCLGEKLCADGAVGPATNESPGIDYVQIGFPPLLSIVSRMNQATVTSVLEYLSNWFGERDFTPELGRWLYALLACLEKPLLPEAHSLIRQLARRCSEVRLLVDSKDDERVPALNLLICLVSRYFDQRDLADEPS
UniProt Q9UHI6: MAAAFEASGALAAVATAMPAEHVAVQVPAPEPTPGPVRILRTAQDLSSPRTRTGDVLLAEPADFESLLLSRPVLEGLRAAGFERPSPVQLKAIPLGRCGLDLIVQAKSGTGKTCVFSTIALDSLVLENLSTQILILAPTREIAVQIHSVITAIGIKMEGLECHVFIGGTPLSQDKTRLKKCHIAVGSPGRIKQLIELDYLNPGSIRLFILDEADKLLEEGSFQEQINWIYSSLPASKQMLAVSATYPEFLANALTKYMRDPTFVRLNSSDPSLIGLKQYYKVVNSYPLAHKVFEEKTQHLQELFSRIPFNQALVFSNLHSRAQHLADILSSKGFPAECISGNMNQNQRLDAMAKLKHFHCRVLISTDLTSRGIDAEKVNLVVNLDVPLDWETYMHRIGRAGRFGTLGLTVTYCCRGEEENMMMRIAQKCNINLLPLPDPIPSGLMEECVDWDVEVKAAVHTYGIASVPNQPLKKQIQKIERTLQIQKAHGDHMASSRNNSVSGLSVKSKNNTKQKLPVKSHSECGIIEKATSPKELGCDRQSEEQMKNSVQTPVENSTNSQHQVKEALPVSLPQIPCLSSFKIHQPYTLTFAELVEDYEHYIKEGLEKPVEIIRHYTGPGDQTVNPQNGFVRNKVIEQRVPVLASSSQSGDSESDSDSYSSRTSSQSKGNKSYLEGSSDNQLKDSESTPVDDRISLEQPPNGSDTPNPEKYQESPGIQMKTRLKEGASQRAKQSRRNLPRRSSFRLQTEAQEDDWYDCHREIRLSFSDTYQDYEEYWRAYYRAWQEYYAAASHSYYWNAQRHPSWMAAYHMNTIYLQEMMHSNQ
UniProt P62318: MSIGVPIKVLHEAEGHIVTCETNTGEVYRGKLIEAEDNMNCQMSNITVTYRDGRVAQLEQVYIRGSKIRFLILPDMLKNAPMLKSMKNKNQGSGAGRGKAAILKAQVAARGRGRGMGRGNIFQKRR

Tests used:
[1] = molecular target: GST-SMN fusion protein (human) (UniProt Q16637); test: GST pull-down, 35S IVT protein
[2] = molecular target: GST-SMN preincubated with His-SMN (SMN oligomer on beads) (human) (UniProt Q16637); test: GST pull-down after preincubation of GST-SMN with His-SMN
[3] = molecular target: GST-SMN preincubated with His-SMN (SMN oligomer on beads) (human) (UniProt Q16637); test: GST pull-down after preincubation of GST-SMN with His6-tagged SMN (FIG. 43)
[4] = molecular target: GST-SMN fusion protein (human) (UniProt Q16637); test: GST pull-down, 35S IVT protein, washes 200 mM to 1 M salt
[5] = molecular target: GST-SMN fusion protein (human) (UniProt Q16637); test: GST pull-down, 35S IVT protein (FIGS. 44-45)
[6] = molecular target: GST-SMN fusion protein (human) (UniProt Q16637); test: GST pull-down, 35S IVT protein (FIG. 44)
[7] = molecular target: GST-SIP1 fusion protein (human) (UniProt O14893); test: GST pull-down, 35S IVT protein
[8] = molecular target: GST-Gemin3 fusion protein (human) (UniProt Q9UHI6); test: GST pull-down, 35S IVT protein
[9] = molecular target: GST-SIP1 fusion protein (human) (UniProt O14893); test: GST pull-down, 35S IVT protein (FIG. 39)
[10] = molecular target: GST-Gemin3 fusion protein (human) (UniProt Q9UHI6); test: GST pull-down of purified 6His protein
[11] = molecular target: GST-Gemin3 fusion protein (human) (UniProt Q9UHI6); test: GST pull-down of purified 6His protein, Western blot
[12] = molecular target: GST-Gemin3 fusion protein (human) (UniProt Q9UHI6); test: GST pull-down of purified 6His protein, Western blot with anti-His-tag
[13] = molecular target: GST-SMN preincubated with His-SMN (SMN oligomer on beads) (human) (UniProt Q16637); test: GST pull-down after preincubation of GST-SMN with 6His-tag SMN
[14] = molecular target: GST-SMN preincubated with His-SMN (SMN oligomer on beads) (human) (UniProt Q16637); test: GST pull-down after preincubation of GST-SMN with 6His-SMN
[15] = molecular target: GST-SMN fusion protein (human) (UniProt Q16637); test: GST pull-down without preincubation

Substance: myc-ΔN368C277Gemin3 (from UniProt Q9UHI6 369-547)
- binding [1]: binds

Substance: myc-tagged SIP1ΔN71 (from UniProt O14893 72-280)
- binding [5]: binds
- binding [6]: binds

Substance: myc-tagged SMN wild type (from UniProt Q16637 1-294)
- binding [7]: binds
- binding [8]: binds
- binding [9]: binds

Substance: Sm D3 protein, in vitro translated and 35S-labeled (from UniProt P62318 1-126)
- binding [8]: binds

Substance: His-tagged SMN wild type, purified recombinant (from UniProt Q16637 1-294)
- binding [10]: binds
- binding [11]: binds
- binding [12]: binds

Substance: myc-tagged SMNY272C (from UniProt Q16637 1-294)
- binding [7]: binds

Substance: SMN (human), in vitro translated and 35S-labeled (from UniProt Q16637 1-294)
- binding [2]: binds
- binding [3]: binds

Now from value to substance:

- binding [1]: binds
- binding [2]: binds
- binding [3]: binds
- binding [4]: binds
Substance: SIP1 (human), in vitro translated and 35S-labeled (from UniProt O14893 1-280)

- binding [13]: binds
- binding [1]: binds
- binding [14]: binds
- binding [15]: binds
Substance: myc-tagged Gemin3 wild type, in vitro translated (from UniProt Q9UHI6 1-824)

- binding [6]: binds
Substance: myc-tagged SIP1 wild type (from UniProt O14893 1-280)
